Results on one substance are retold here after patent US20100183876 (published 2010).

The series in a line: peptide synthesis. As to conditions: purification step.

(Aib^8,35)hGLP-1(7-36)NH2: the “final HPLC purity” value (HPLC (area %)) is 97.9% (area). Besides, the step yield (according to HPLC assay) came out at 92%.
